PubChem BioAssay AID1671195, Yale University | 2021
Shown is a random part of about 22,000 reagents tested. Over the whole deposit, about 1,510 (6.9%) got an active call. 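Active includes knockdowns raising or lowering LDL uptake; positive z-scores mean more uptake, negative mean less.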 No sequences are given here.

Screen: 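Genes whose knockdown alters LDL uptake in liver cancer cells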 (primary screen)
Cell system: human Huh7 hepatoma cells
Reagents: siRNA pool against human genes, 18 nM
Timing: about 2 to 2.5 days of knockdown, then 8 h LDL uptake
Treatment: DiI-labelled LDL at 30 µg/ml for 8 h, in lipoprotein-deficient serum medium
Measurement: 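Fluorescent LDL signal imaged in cells, scaled to the plate median, robust z-score for each replicate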
Scale: robust z-score: higher = more LDL uptake after knockdown
Rule for the call: 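Active when two or more replicates show a robust z-score above 2 or below -2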

After knock-down of BTN3A3, the record shows robust z-score, replicate 1 = 0.3; robust z-score, replicate 2 = 0.0195; robust z-score, replicate 3 = 0.471; inactive.
Against PAFAH2 the deposit lists robust z-score, replicate 1 = -0.277; robust z-score, replicate 2 = -0.165; robust z-score, replicate 3 = -0.0856; inactive.
Knock-down of WDFY3 came out at: robust z-score, replicate 1 = -1.2; robust z-score, replicate 2 = -1.01; robust z-score, replicate 3 = -0.936; inactive.
For LINC00173, the entry reads robust z-score, replicate 1 = 1.42; robust z-score, replicate 2 = 0.689; robust z-score, replicate 3 = 1.12; inactive.
ASIC2-AS1 scored robust z-score, replicate 1 = -0.64; robust z-score, replicate 2 = -0.38; robust z-score, replicate 3 = -1.04; inactive.
After knock-down of HMGB4, the record shows robust z-score, replicate 1 = -0.886; robust z-score, replicate 2 = -1.04; robust z-score, replicate 3 = -1.64; inactive.
Against NPC1L1, the entry reads robust z-score, replicate 1 = 0.142; robust z-score, replicate 2 = 1.54; robust z-score, replicate 3 = -0.244; inactive.
Knock-down of FAM124A came out at: robust z-score, replicate 1 = 2.54; robust z-score, replicate 2 = 3.3; robust z-score, replicate 3 = 2.82; active.
Depletion of PHKG1 came out at: robust z-score, replicate 1 = 0.423; robust z-score, replicate 2 = -0.572; robust z-score, replicate 3 = -0.356; inactive.
MANEA showed robust z-score, replicate 1 = 0.277; robust z-score, replicate 2 = 0.174; robust z-score, replicate 3 = 0.549; inactive.
Against RPS2, the values are robust z-score, replicate 1 = -1.13; robust z-score, replicate 2 = -0.273; robust z-score, replicate 3 = 0.804; inactive.
Silencing of CHRNB3 resulted in: robust z-score, replicate 1 = -0.514; robust z-score, replicate 2 = -0.636; robust z-score, replicate 3 = -0.773; inactive.
Knock-down of MZT1 came out at: robust z-score, replicate 1 = -1.69; robust z-score, replicate 2 = -1.8; robust z-score, replicate 3 = -2.17; inactive.
Depletion of LRP11 resulted in: robust z-score, replicate 1 = -0.0643; robust z-score, replicate 2 = 0.426; robust z-score, replicate 3 = -0.0154; inactive.
CFL1P2 scored robust z-score, replicate 1 = -0.529; robust z-score, replicate 2 = -0.025; robust z-score, replicate 3 = -0.878; inactive.
Knock-down of TEX26 came out at: robust z-score, replicate 1 = 0.1; robust z-score, replicate 2 = 0.292; robust z-score, replicate 3 = 0.222; inactive.

3 entries from above, set out differently.
{"Target gene": "MANEA", "robust z-score, replicate 1": 0.277, "robust z-score, replicate 2": 0.174, "robust z-score, replicate 3": 0.549, "outcome": "inactive"}
{"Target gene": "RPS2", "robust z-score, replicate 1": -1.13, "robust z-score, replicate 2": -0.273, "robust z-score, replicate 3": 0.804, "outcome": "inactive"}
{"Target gene": "CHRNB3", "robust z-score, replicate 1": -0.514, "robust z-score, replicate 2": -0.636, "robust z-score, replicate 3": -0.773, "outcome": "inactive"}
